# Assay results published in paper PMC3420946.
# Amino acid sequences for entries named in this document (tags omitted).
# UniProt P22366: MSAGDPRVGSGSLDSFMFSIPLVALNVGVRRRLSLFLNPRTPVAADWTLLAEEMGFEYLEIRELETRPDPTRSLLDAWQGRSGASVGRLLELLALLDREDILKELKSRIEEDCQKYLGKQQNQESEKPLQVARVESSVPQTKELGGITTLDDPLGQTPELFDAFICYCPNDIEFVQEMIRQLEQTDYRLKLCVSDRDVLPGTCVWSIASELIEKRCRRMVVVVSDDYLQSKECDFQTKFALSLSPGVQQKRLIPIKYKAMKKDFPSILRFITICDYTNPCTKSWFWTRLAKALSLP
# These are yes or no findings as the source states them, for the method shown. In cells and extracts the contact can be indirect.
# Target: T1, Toll like receptor 7 (TLR7) (mouse (endogenous in BMDCs)) (UniProt P58681)
# T1 sequence: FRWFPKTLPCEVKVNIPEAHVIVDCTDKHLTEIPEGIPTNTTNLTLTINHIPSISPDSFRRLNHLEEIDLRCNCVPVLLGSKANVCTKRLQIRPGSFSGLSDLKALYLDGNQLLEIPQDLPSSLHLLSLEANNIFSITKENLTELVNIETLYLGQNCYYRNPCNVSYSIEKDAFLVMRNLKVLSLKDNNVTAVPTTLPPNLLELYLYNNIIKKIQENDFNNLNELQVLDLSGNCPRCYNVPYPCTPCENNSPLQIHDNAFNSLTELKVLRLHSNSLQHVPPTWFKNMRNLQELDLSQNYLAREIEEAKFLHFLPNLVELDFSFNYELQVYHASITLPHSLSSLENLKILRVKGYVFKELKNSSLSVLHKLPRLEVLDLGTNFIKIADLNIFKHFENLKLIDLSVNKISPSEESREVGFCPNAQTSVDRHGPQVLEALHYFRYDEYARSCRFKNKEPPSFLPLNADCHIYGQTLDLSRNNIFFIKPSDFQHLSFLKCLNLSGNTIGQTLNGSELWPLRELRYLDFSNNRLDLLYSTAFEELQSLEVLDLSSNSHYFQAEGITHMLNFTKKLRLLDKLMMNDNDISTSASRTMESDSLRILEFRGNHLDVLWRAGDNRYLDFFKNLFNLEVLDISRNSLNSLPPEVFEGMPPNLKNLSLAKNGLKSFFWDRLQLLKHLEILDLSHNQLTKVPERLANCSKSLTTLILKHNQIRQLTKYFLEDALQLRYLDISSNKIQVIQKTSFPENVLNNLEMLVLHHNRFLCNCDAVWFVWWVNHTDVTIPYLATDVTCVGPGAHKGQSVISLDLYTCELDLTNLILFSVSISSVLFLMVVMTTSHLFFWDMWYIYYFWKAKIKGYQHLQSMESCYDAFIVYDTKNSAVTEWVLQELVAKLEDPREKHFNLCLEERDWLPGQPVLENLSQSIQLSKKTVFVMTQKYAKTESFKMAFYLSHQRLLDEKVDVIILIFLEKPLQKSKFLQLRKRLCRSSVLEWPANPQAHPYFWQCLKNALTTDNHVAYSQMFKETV
# Assay: condition: only cells not stimulated with imiquimod; proximity ligation; Duolink in situ with anti-MyD88 and anti-TLR7 antibodies on fixed, permeabilised BMDCs not stimulated with imiquimod
substance,measurement,value
MyD88 (from UniProt P22366 1-296),binding,no binding
